Source: the supplement of paper PMC8728848
The other results are listed elsewhere or left out.

What was measured:
Experiment in all cases: glycan array binding signal (z-score within array); higher = stronger binding
Conditions in all cases: glycan notation: IUPAC condensed, linker removed
GlcNAc(b1-3)Gal(b1-4)Glc = biological target: GlcNAc(b1-3)Gal(b1-4)Glc
In short: (§1)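 Glycan array binding is given as a within-array Z-score, which can be read as non-binding when negative. The arrays, 3228 of them, came from the Consortium for Functional Glycomics database and were retained only where the protein sequence was available. Z-scores were averaged across arrays of the same protein sequence at different concentrations or buffers and across linkers.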

[1] = biological target: GlcNAc(b1-3)Gal(b1-4)GlcNAc
In short: as §1

[2] = biological target: GlcNAc(b1-3)Gal(b1-4)GlcNAc(b1-2)Man(a1-3)[GlcNAc(b1-3)Gal(b1-4)GlcNAc(b1-2)Man(a1-6)]Man(b1-4)GlcNAc(b1-4)GlcNAc
In short: as §1

[3] = biological target: GlcNAc(b1-3)Gal(b1-4)GlcNAc(b1-2)Man(a1-3)[GlcNAc(b1-3)Gal(b1-4)GlcNAc(b1-2)Man(a1-6)]Man(b1-4)GlcNAc(b1-4)[Fuc(a1-6)]GlcNAc
In short: as §1

[4] = biological target: GlcNAc(b1-3)Gal(b1-4)GlcNAc(b1-2)[GlcNAc(b1-3)Gal(b1-4)GlcNAc(b1-6)]Man(a1-6)[GlcNAc(b1-3)Gal(b1-4)GlcNAc(b1-2)Man(a1-3)]Man(b1-4)GlcNAc(b1-4)GlcNAc
In short: as §1

[5] = biological target: GlcNAc(b1-3)Gal(b1-4)GlcNAc(b1-3)Gal(b1-4)GlcNAc
In short: as §1

[6] = biological target: GlcNAc(b1-3)Gal(b1-4)GlcNAc(b1-3)Gal(b1-4)GlcNAc(b1-2)Man(a1-3)[GlcNAc(b1-3)Gal(b1-4)GlcNAc(b1-3)Gal(b1-4)GlcNAc(b1-2)Man(a1-6)]Man(b1-4)GlcNAc(b1-4)GlcNAc
In short: as §1

[7] = biological target: GlcNAc(b1-3)Gal(b1-4)GlcNAc(b1-3)Gal(b1-4)GlcNAc(b1-2)Man(a1-3)[GlcNAc(b1-3)Gal(b1-4)GlcNAc(b1-3)Gal(b1-4)GlcNAc(b1-2)Man(a1-6)]Man(b1-4)GlcNAc(b1-4)[Fuc(a1-6)]GlcNAc
In short: as §1

[8] = biological target: GlcNAc(b1-3)Gal(b1-4)GlcNAc(b1-3)Gal(b1-4)GlcNAc(b1-2)[GlcNAc(b1-3)Gal(b1-4)GlcNAc(b1-3)Gal(b1-4)GlcNAc(b1-6)]Man(a1-6)[GlcNAc(b1-3)Gal(b1-4)GlcNAc(b1-3)Gal(b1-4)GlcNAc(b1-2)Man(a1-3)]Man(b1-4)GlcNAc(b1-4)[Fuc(a1-6)]GlcNAc
In short: as §1

[9] = biological target: GlcNAc(b1-3)Gal(b1-4)GlcNAc(b1-3)Gal(b1-4)GlcNAc(b1-3)Gal(b1-4)GlcNAc(b1-2)Man(a1-3)[GlcNAc(b1-3)Gal(b1-4)GlcNAc(b1-3)Gal(b1-4)GlcNAc(b1-3)Gal(b1-4)GlcNAc(b1-2)Man(a1-6)]Man(b1-4)GlcNAc(b1-4)GlcNAc
In short: as §1

[10] = biological target: GlcNAc(b1-3)Gal(b1-4)GlcNAc(b1-3)Gal(b1-4)GlcNAc(b1-3)Gal(b1-4)GlcNAc(b1-2)Man(a1-3)[GlcNAc(b1-3)Gal(b1-4)GlcNAc(b1-3)Gal(b1-4)GlcNAc(b1-3)Gal(b1-4)GlcNAc(b1-2)Man(a1-6)]Man(b1-4)GlcNAc(b1-4)[Fuc(a1-6)]GlcNAc
In short: as §1

[11] = biological target: GlcNAc(b1-3)Gal(b1-4)GlcNAc(b1-3)Gal(b1-4)GlcNAc(b1-3)Gal(b1-4)GlcNAc(b1-2)[GlcNAc(b1-3)Gal(b1-4)GlcNAc(b1-3)Gal(b1-4)GlcNAc(b1-3)Gal(b1-4)GlcNAc(b1-6)]Man(a1-6)[GlcNAc(b1-3)Gal(b1-4)GlcNAc(b1-3)Gal(b1-4)GlcNAc(b1-3)Gal(b1-4)GlcNAc(b1-2)Man(a1-3)]Man(b1-4)GlcNAc(b1-4)[Fuc(a1-6)]GlcNAc
In short: as §1

[12] = biological target: GlcNAc(b1-3)Gal(b1-4)GlcNAc(b1-3)Gal(b1-4)GlcNAc(b1-3)Gal(b1-4)GlcNAc(b1-3)Gal(b1-4)GlcNAc(b1-2)Man(a1-3)[GlcNAc(b1-3)Gal(b1-4)GlcNAc(b1-3)Gal(b1-4)GlcNAc(b1-3)Gal(b1-4)GlcNAc(b1-3)Gal(b1-4)GlcNAc(b1-2)Man(a1-6)]Man(b1-4)GlcNAc(b1-4)GlcNAc
In short: as §1

[13] = biological target: GlcNAc(b1-3)Gal(b1-4)GlcNAc(b1-3)Gal(b1-4)GlcNAc(b1-3)Gal(b1-4)GlcNAc(b1-3)Gal(b1-4)GlcNAc(b1-2)Man(a1-3)[GlcNAc(b1-3)Gal(b1-4)GlcNAc(b1-3)Gal(b1-4)GlcNAc(b1-3)Gal(b1-4)GlcNAc(b1-3)Gal(b1-4)GlcNAc(b1-2)Man(a1-6)]Man(b1-4)GlcNAc(b1-4)[Fuc(a1-6)]GlcNAc
In short: as §1

[14] = biological target: GlcNAc(b1-3)Gal(b1-4)GlcNAc(b1-3)Gal(b1-4)GlcNAc(b1-3)Gal(b1-4)GlcNAc(b1-3)Gal(b1-4)GlcNAc(b1-2)[GlcNAc(b1-3)Gal(b1-4)GlcNAc(b1-3)Gal(b1-4)GlcNAc(b1-3)Gal(b1-4)GlcNAc(b1-3)Gal(b1-4)GlcNAc(b1-6)]Man(a1-6)[GlcNAc(b1-3)Gal(b1-4)GlcNAc(b1-3)Gal(b1-4)GlcNAc(b1-3)Gal(b1-4)GlcNAc(b1-3)Gal(b1-4)GlcNAc(b1-2)Man(a1-3)]Man(b1-4)GlcNAc(b1-4)[Fuc(a1-6)]GlcNAc
In short: as §1

[15] = biological target: GlcNAc(b1-3)Gal(b1-4)GlcNAc(b1-3)Gal(b1-4)GlcNAc(b1-3)GalNAc
In short: as §1

[16] = biological target: GlcNAc(b1-3)Gal(b1-4)GlcNAc(b1-3)GalNAc
In short: as §1

[17] = biological target: GlcNAc(b1-3)Gal(b1-4)GlcNAc(b1-3)[GlcNAc(b1-3)Gal(b1-4)GlcNAc(b1-3)]GalNAc
In short: as §1

[18] = biological target: GlcNAc(b1-3)Gal(b1-4)GlcNAc(b1-6)[Gal(b1-3)]GalNAc
In short: as §1

[19] = biological target: GlcNAc(b1-3)Gal(b1-4)GlcNAc(b1-6)[GlcNAc(b1-3)Gal(b1-3)]GalNAc
In short: as §1

[20] = biological target: GlcNAc(b1-3)Gal(b1-4)GlcNAc(b1-6)[GlcNAc(b1-3)]Gal(b1-4)GlcNAc
In short: as §1

GlcNAc(b1-3)GalNAc = biological target: GlcNAc(b1-3)GalNAc
In short: as §1

GlcNAc(b1-3)Man = biological target: GlcNAc(b1-3)Man
In short: as §1

[21] = biological target: GlcNAc(b1-3)[GlcNAc(b1-4)][GlcNAc(b1-6)]GlcNAc
In short: as §1

[22] = biological target: GlcNAc(b1-3)[GlcNAc(b1-6)]Gal(b1-4)GlcNAc
In short: as §1

[23] = biological target: GlcNAc(b1-3)[GlcNAc(b1-6)]GalNAc
In short: as §1

[24] = biological target: GlcNAc(b1-4)Gal(b1-4)GlcNAc
In short: as §1

GlcNAc(b1-4)GlcNAc = biological target: GlcNAc(b1-4)GlcNAc
In short: as §1

[25] = biological target: GlcNAc(b1-4)GlcNAc(b1-4)GlcNAc
In short: as §1

[26] = biological target: GlcNAc(b1-4)GlcNAc(b1-4)GlcNAc(b1-4)GlcNAc(b1-4)GlcNAc
In short: as §1

[27] = biological target: GlcNAc(b1-4)GlcNAc(b1-4)GlcNAc(b1-4)GlcNAc(b1-4)GlcNAc(b1-4)GlcNAc
In short: as §1

[28] = biological target: GlcNAc(b1-4)[GlcNAc(b1-6)]GalNAc
In short: as §1

[29] = biological target: GlcNAc(b1-6)Gal(b1-4)GlcNAc
In short: as §1

GlcNAc(b1-6)GalNAc = biological target: GlcNAc(b1-6)GalNAc
In short: as §1

[30] = biological target: GlcNAc6S(b1-3)Gal(b1-4)GlcNAc
In short: as §1

Kdn(a2-3)Gal(b1-3)GalNAc = biological target: Kdn(a2-3)Gal(b1-3)GalNAc
In short: as §1

Kdn(a2-3)Gal(b1-3)GlcNAc = biological target: Kdn(a2-3)Gal(b1-3)GlcNAc
In short: as §1

Kdn(a2-3)Gal(b1-4)Glc = biological target: Kdn(a2-3)Gal(b1-4)Glc
In short: as §1

Kdn(a2-3)Gal(b1-4)GlcNAc = biological target: Kdn(a2-3)Gal(b1-4)GlcNAc
In short: as §1

[31] = biological target: Kdn(a2-3)Gal(b1-4)[Fuc(a1-3)]GlcNAc
In short: as §1

Kdn(a2-6)Gal(b1-4)GlcNAc = biological target: Kdn(a2-6)Gal(b1-4)GlcNAc
In short: as §1

[32] = biological target: Man(a1-2)Man(a1-2)Man(a1-3)Man
In short: as §1

[33] = biological target: Man(a1-2)Man(a1-2)Man(a1-6)[Man(a1-3)]Man
In short: as §1

Man(a1-2)Man(a1-3)Man = biological target: Man(a1-2)Man(a1-3)Man
In short: as §1

[34] = biological target: Man(a1-2)Man(a1-3)[Man(a1-2)Man(a1-6)]Man
In short: as §1

B1: LlpB (Pseudomonas fluorescens) (protein)
chain: MGSSHHHHHHSSGLVPRGSHMASSGFRIILFNSANNGTAILPPRNCLVAGQYLESPSKRYKLILEADGNLRLYDNGVPIWVADSSVPYTYVDNRPNTNLVTCFYMQGSAFLVDRVGSRTWATIGDWIDGAADRAYLQVQDDGNVVVVDGVPRWARFGFTPAALPNRGVFYPDHGTGPLPSFPVWSWTF
B1 was tested, and the “glycan array binding signal (z-score)” value (GlcNAc(b1-3)Gal(b1-4)Glc) was -0.719, the “glycan array binding signal (z-score)” value [1] was 0.313 and the “glycan array binding signal (z-score)” value [2] was 0.119. The “glycan array binding signal (z-score)” value [3] was 0.298, the “glycan array binding signal (z-score)” value [4] was 0.581 and the “glycan array binding signal (z-score)” value [5] was 0.075. The “glycan array binding signal (z-score)” value [6] was 1.22, the “glycan array binding signal (z-score)” value [7] was 0.86 and the “glycan array binding signal (z-score)” value [8] was 0.375. The “glycan array binding signal (z-score)” value [9] was -0.084, the “glycan array binding signal (z-score)” value [10] was 0.362 and the “glycan array binding signal (z-score)” value [11] was 0.847. The “glycan array binding signal (z-score)” value [12] was -0.751, the “glycan array binding signal (z-score)” value [13] was -0.668 and the “glycan array binding signal (z-score)” value [14] was -0.929. For the same binder, the “glycan array binding signal (z-score)” value [15] was -1.19, the “glycan array binding signal (z-score)” value [16] was 1.59 and the “glycan array binding signal (z-score)” value [17] was 0.272. The “glycan array binding signal (z-score)” value [18] was 1.38, the “glycan array binding signal (z-score)” value [19] was 1.18 and the “glycan array binding signal (z-score)” value [20] was -0.837. The “glycan array binding signal (z-score)” value (GlcNAc(b1-3)GalNAc) was -0.007, the “glycan array binding signal (z-score)” value (GlcNAc(b1-3)Man) was 0.669 and the “glycan array binding signal (z-score)” value [21] was 0.793. The “glycan array binding signal (z-score)” value [22] was -0.461, the “glycan array binding signal (z-score)” value [23] was -0.285 and the “glycan array binding signal (z-score)” value [24] was -1.19. The “glycan array binding signal (z-score)” value (GlcNAc(b1-4)GlcNAc) was -0.563, the “glycan array binding signal (z-score)” value [25] was -0.667 and the “glycan array binding signal (z-score)” value [26] was -0.31. The “glycan array binding signal (z-score)” value [27] was 1.48, the “glycan array binding signal (z-score)” value [28] was -0.513 and the “glycan array binding signal (z-score)” value [29] was 1.78. For the same binder, the “glycan array binding signal (z-score)” value (GlcNAc(b1-6)GalNAc) was -1.23, the “glycan array binding signal (z-score)” value [30] was -1.16 and the “glycan array binding signal (z-score)” value (Kdn(a2-3)Gal(b1-3)GalNAc) was 1.46. For the same binder, the “glycan array binding signal (z-score)” value (Kdn(a2-3)Gal(b1-3)GlcNAc) was 0.492, the “glycan array binding signal (z-score)” value (Kdn(a2-3)Gal(b1-4)Glc) was 3.03 and the “glycan array binding signal (z-score)” value (Kdn(a2-3)Gal(b1-4)GlcNAc) was -1.32. The “glycan array binding signal (z-score)” value [31] was -0.158, the “glycan array binding signal (z-score)” value (Kdn(a2-6)Gal(b1-4)GlcNAc) was 0.364 and the “glycan array binding signal (z-score)” value [32] was 0.105. The “glycan array binding signal (z-score)” value [33] was -1.38, the “glycan array binding signal (z-score)” value (Man(a1-2)Man(a1-3)Man) was 0.294 and the “glycan array binding signal (z-score)” value [34] was -0.485.
